The values below come from paper PMC10163693.

Sequences of proteins named here, by UniProt entry; tags and fusion partners are left off. Residues count along the entry.
His-Sumo-YAP1^WW1 (residues 174-204) (P46937, residues 174-204): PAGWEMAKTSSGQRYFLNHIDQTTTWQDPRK
His-Sumo-YAP1^WW2 (residues 227-266) (P46937, residues 227-266): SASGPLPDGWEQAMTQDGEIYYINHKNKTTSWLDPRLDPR

This assay has as its target T1, GST-NF1^AAAA (GST-NF1^PPQY with the four PPQY residues replaced by alanine) (UniProt P21359).
T1 sequence: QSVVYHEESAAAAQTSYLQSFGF
Nature of the assay: pull-down; GST, GST-NF1^PPQY or GST-NF1^AAAA prebound on Glutathione Sepharose beads; increasing amounts of His-Sumo-YAP1^WW1 or His-Sumo-YAP1^WW2 added; 20 mM Tris pH 8.0, 150 mM NaCl, 2 h, 4 °C; eluted with 10 mM GSH; SDS-PAGE, Coomassie blue; both purified.

These are yes or no findings as the source states them, for the method shown. Sequences can lack the tags named with a protein.

As to “His-Sumo-YAP1^WW2 (residues 227-266) (from UniProt P46937 227-266) (domain or fragment)”, the binding entry is “no binding”.

As for “His-Sumo-YAP1^WW1 (residues 174-204) (from UniProt P46937 174-204) (domain or fragment)”, the binding result is “no binding”.
